Measured values taken from patent US11441122B2, “Regulatory T cell epitopes” (EpiVax, Inc., priority 2017, dated 2022).
Part of at least one peptide drawing is inferred or uncertain, most often the ends.

Legend:
[1] = test system: CD8+ effector memory T cells; assay: Suppression of CEF peptide stimulated CD8+ T cells in PBMC; assay type: cell-based, human; conditions: CEF 2 μg/mL, dose-dependent
Class II HLA alleles = assay: Soluble HLA competition binding assay, panel of five alleles (summary statements); parameters: species or system human; conditions: five HLA-DR1 types
Experimental: HLA Binding Assay. Binding activity was analyzed at EpiVax (Providence, R.I.). The binding assay used (Steere A C et al., (2006), J Exp Med, 2003(4):961-71) yielded an indirect measure of peptide-MHC affinity. Soluble HLA molecules were loaded onto a 96-well plate with the unlabeled experimental Tregitopes and labeled control peptide. Once the binding mixture reached steady equilibrium (at 24 hours), the HLA-Tregitope complexes were captured on an ELISA plate coated with anti-human DR antibody and detected with a Europium-linked probe for the label (PerkinElmer, Waltham, Mass.). Time-resolved fluorescence measuring bound labeled control peptide is assessed by a SpectraMax® M5 unit (Spectramax, Radnor, Pa.). Binding of experimental Tregitopes was expressed as the percent inhibition of the labeled control peptide (experimental fluorescence/control fluorescence multiplied by 100).
The experimental Tregitopes were solvated in DMSO. The diluted Tregitopes were then mixed with binding reagents in aqueous buffering solution, yielding a range of final concentrations from 100,000 nM down to 100 nM. Tregitopes were then assayed against a panel of five common Class II HLA alleles: HLA-DRB1*0101, HLA-DRB1*0301, HLA-DRB1*0701, HLA-DRB1*1101, and HLA-DRB1*1501. […]

[2] = test system: NOD-scid IL-2Rγ^null mice transplanted with human PBMC; assay: Xenogenic GvHD model, human PBMC transplanted into irradiated NSG mice; assay type: in vivo, mouse; conditions: 20 μg, days 0, 2, 4, 7, 10, 15, 20, 25
dendritic cells = assay: Dendritic cell (APC) phenotyping assay, HLA-DR and CD86 surface expression; assay type: cell-based, human; conditions: 50 μg/mL peptide, relative to media control

## CC[C@H](C)[C@H](NC(C)=O)C(=O)N[C@@H](CC(C)C)C(=O)N[C@H](C(=O)N[C@H](C(=O)N[C@@H](Cc1c[nH]cn1)C(=O)N[C@@H](Cc1ccccc1)C(=O)N[C@H](C(=O)NCC(=O)N[C@@H](Cc1c[nH]cn1)C(=O)N[C@@H](CO)C(=O)N[C@@H](Cc1ccccc1)C(=O)N[C@H](C(=O)N[C@@H](Cc1ccc(O)cc1)C(=O)NCC(=O)N[C@@H](CCCCN)C(N)=O)[C@@H](C)CC)[C@@H](C)O)[C@@H](C)CC)[C@@H](C)O [SEQ ID NO: 1]
[1]
  CD8+ T cell proliferative response to CEF peptides: strongly inhibits
  activation of CD8+ cells (CD25hi FoxP3 int/lo): strongly inhibits
Class II HLA alleles
  affinity of binding across multiple HLA Class II types: high affinity (inhibit 50% of control peptide binding at a concentration between 100 nM and 1,000 nM)
[2]
  development of GvHD: delay
Dendritic cells; day 7, five donors
  expression of HLA-DR on CD11c-high dendritic cells: decreased expression of HLA-DR in all five subjects tested
Dendritic cells; day 7, in four out of five subjects
  percent of CD86-low present among the CD11c-high cohort: increased the percent of CD86-low
